In publication doi:10.1101/2024.08.10.607320:
No constants are given. Whether binding was seen depends on the method and setting.

By UniProt entry, the sequences of proteins in these tests, tags left out. Residues count along the entry.
UniProt P10997, residues 34-70: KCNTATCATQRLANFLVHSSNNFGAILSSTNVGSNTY
UniProt P02769, residues 25-607: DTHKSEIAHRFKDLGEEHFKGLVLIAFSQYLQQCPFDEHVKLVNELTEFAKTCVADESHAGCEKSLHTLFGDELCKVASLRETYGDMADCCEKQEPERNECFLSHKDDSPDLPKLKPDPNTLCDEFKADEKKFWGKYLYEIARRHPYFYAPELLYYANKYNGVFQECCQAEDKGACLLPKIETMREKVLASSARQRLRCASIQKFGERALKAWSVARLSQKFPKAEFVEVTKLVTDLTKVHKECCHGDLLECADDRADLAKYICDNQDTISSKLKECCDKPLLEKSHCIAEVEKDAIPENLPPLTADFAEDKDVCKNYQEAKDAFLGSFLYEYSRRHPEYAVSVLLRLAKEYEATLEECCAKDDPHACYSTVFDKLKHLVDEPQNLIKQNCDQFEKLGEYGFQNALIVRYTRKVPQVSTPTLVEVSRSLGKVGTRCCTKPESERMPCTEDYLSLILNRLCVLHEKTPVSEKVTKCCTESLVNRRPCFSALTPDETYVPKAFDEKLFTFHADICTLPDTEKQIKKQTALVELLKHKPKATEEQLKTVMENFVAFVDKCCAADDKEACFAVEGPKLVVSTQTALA

Molecular target: FITC-labelled Amylin1-37 (human) (UniProt P10997)
Test: other fluorescence titration

binding: no binding
Substance: BSA (from UniProt P02769 25-607)
